Results deposited as PubChem BioAssay AID1508588 (Peter MacCallum Cancer Centre, 2020).

Aim: 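Which gene losses make BRAF-mutant melanoma cells more responsive to vemurafenib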 (primary screen)
Cells: human WM266.4 melanoma cells (BRAF V600 mutant)
Reagents: siRNA pool against human genes, 40 nM
Duration: 96 h from transfection to read-out
Challenge: vemurafenib 300 nM (about IC25), added 48 h after transfection, for 48 h; comparison arm got DMSO vehicle only
Measurement: 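Ratios to non-targeting siRNA for cell gain, counted as DAPI nuclei after minus before drug and averaged over two replicates, and for absorbance-read medium lactate per cell; both binned into fold-change classes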
Direction: cell gain with vemurafenib: higher = more cell gain than with non-targeting siRNA; lactate per cell with vemurafenib: higher = more lactate made per cell
Hit rule: 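Enhancement is called by pairing each knock-down's vehicle-arm and drug-arm fold-change classes for viability or glycolysis; which class combinations qualify is not given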
Calls: active = enhances vemurafenib effect; inactive = no enhancement seen
Shown is one part, drawn at random, of about 18,000 reagents tested. 790 of them (4.4%) were called active. 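Calls rest on a combination of fold-change classes in drug and vehicle arms, not all shown here.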 A reagent listed more than once was tested more than once; the source does not tell the runs apart.

| gene | cell gain with vemurafenib | lactate per cell with vemurafenib | call |
| --- | --- | --- | --- |
| NSUN6 | 0.47 | 1.36 | inactive |
| GSAP | 1.08 | 0.68 | inactive |
| PDP1 | 0.69 | 0.38 | inactive |
| CEACAM3 | 0.75 | 1 | inactive |
| AEBP2 | 0.7 | 0.83 | inactive |
| NAP1L3 | 0.63 | 0.62 | inactive |
| HTR7 | 0.95 | 0.32 | active |
| NDUFA7 | 0.54 | 0.48 | inactive |
| RRN3 | 0.74 | 0.8 | inactive |
| ZNF444 | 0.66 | 0.86 | inactive |
| GAL3ST1 | 0.9 | 0.54 | inactive |
| WBP2 | 1.22 | 0.3 | inactive |
| CLCNKA | 0.9 | 1.02 | inactive |
| GABRA3 | 0.78 | 0.82 | inactive |
| CPNE7 | 0.69 | 1.33 | inactive |
| TMEM9 | 1.34 | 0.7 | inactive |
| HAPSTR1 | 0.98 | 0.42 | inactive |
| SMIM3 | 0.71 | 1.04 | inactive |
| SMIM3 | 0.73 | 1.25 | inactive |
| DEAF1 | 0.51 | 1.36 | inactive |
| MAGEF1 | 0.67 | 1.46 | inactive |
| ALG1L1P | 0.81 | 1.15 | inactive |
| HCG27 | 0.87 | 0.32 | inactive |
| SEC22C | 0.82 | 0.97 | inactive |
| LYRM4 | 0.91 | 0.66 | inactive |
| ITPRID2 | 0.91 | 0.6 | inactive |
| SMOC2 | 0.35 | 0.69 | inactive |
| BHLHE41 | 0.54 | 1.36 | inactive |
| CD58 | 0.75 | 1.25 | inactive |
| MAMSTR | 0.44 | 0.82 | inactive |
| OCIAD1 | 1.07 | 0.64 | inactive |
| MCC | 0.78 | 0.48 | active |
| DMBX1 | 0.5 | 0.92 | inactive |
| ASB15 | 0.27 | 0.64 | inactive |
| GRIK3 | 0.75 | 0.69 | active |
| CNN1 | 0.87 | 0.94 | inactive |
| EHD4 | 0.95 | 0.48 | inactive |
| DNAH2 | 0.58 | 0.97 | inactive |
| TET1 | 0.63 | 0.8 | inactive |
| EPHA3 | 0.49 | 0.76 | inactive |
| MRGPRX3 | 0.85 | 1.06 | inactive |
| ADM | 0.74 | 0.98 | inactive |
| MPHOSPH8 | 0.92 | 0.94 | inactive |
| TECTB | 0.65 | 0.89 | inactive |
| ZNF583 | 0.18 | 1.45 | inactive |
| PLOD3 | -0.09 | 2.93 | inactive |
| SEC11A | 0.5 | 1.15 | inactive |
| CITED4 | 1.14 | 1.14 | inactive |
| EIF5A | 1.02 | 0.9 | inactive |
| POLR1A | 0.91 | 0.38 | inactive |
| ACTL9 | 0.48 | 1.55 | inactive |
| LIN54 | -0.1 | 2.63 | inactive |
| ACOT13 | 1.14 | 0.52 | inactive |
| TSC22D3 | 0.98 | 0.82 | inactive |
| STX2 | 1.35 | 0.63 | inactive |
| ZGPAT | 0.89 | 0.7 | inactive |
| NKG7 | 0.7 | 0.88 | inactive |
| IGFBP6 | 0.1 | 0.62 | inactive |
| KCNQ5 | 0.59 | 1.31 | inactive |
| ELP3 | 0.75 | 0.92 | inactive |
| KLK9 | 0.45 | 1.2 | inactive |
| ONECUT1 | 0.92 | 1.06 | inactive |
| FEV | 0.2 | 1.34 | inactive |
| THOP1 | 0.64 | 0.7 | inactive |
| MIOS | 0.43 | 1.27 | inactive |
| PRSS50 | 0.49 | 1.61 | inactive |
| GPR171 | 0.85 | 0.64 | inactive |
| CRIP2 | 0.56 | 0.42 | active |
| KLHDC7A | 1.02 | 1.02 | inactive |
| PFKFB2 | 0.53 | 1.29 | inactive |
| PFKFB2 | 0.43 | 1.62 | inactive |
| ZMYM5 | 0.98 | 0.44 | active |
| OR8B3 | 1.26 | 0.67 | inactive |
| OR2AG2 | 0.36 | 1.07 | inactive |
| SLC22A15 | 0.6 | 1.34 | inactive |
| HOXA13 | 1.27 | 1.25 | inactive |
| LGI3 | 0.74 | 1.16 | inactive |
| PPP1R18 | 0.59 | 0.64 | inactive |
| COPS3 | 0.56 | 0.71 | inactive |
| CMKLR1 | 0.48 | 1.06 | inactive |
| GPR4 | 0.31 | 1.19 | inactive |
| SLCO1A2 | 0.67 | 0.89 | inactive |
| LYSMD3 | 0.26 | 2.19 | inactive |
| NSA2 | -0.16 | 4.27 | inactive |

Sorted by “cell gain with vemurafenib” (descending): 6 of the entries above.
| gene | cell gain with vemurafenib | lactate per cell with vemurafenib | call |
| --- | --- | --- | --- |
| CITED4 | 1.14 | 1.14 | inactive |
| ACOT13 | 1.14 | 0.52 | inactive |
| EIF5A | 1.02 | 0.9 | inactive |
| POLR1A | 0.91 | 0.38 | inactive |
| ACTL9 | 0.48 | 1.55 | inactive |
| LIN54 | -0.1 | 2.63 | inactive |
